The other results are listed elsewhere or left out.
Legend:
Test in all cases: log2 fold change, soluble protein after heating vs DMSO (PISA); higher = thermal stabilisation; K562 lysate, 10 uM; active = over 0.2 and 3.5 SD of the protein, either way, in both replicates (recomputed)
erlotinib = compound: C#Cc1cccc(Nc2ncnc3cc(OCCOC)c(OCCOC)cc23)c1 [erlotinib]
How it was run: (§1)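 Following dounce homogenisation of K562 pellets in PBS pH 7.4 with 1 mM MgCl2, crude extract at 1 mg/mL protein was incubated for 30 min with 10 μM compound. Aliquots were then heated for 3 min over 48°C-58°C and pooled, NP-40 was added to 0.5% at 4°C, and soluble protein was recovered as the supernatant at 21,000xg for 90 min. Channel-sum-equalised TMTpro 16plex LC-MS/MS quantified this protein. Each value, from duplicates, is a log-two fold change in thermal stability relative to solvent controls.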

Amino acid sequences for entries named in this document (tags omitted). A change or cut given only in a name is not applied to a line headed by its entry.
UniProt O15056: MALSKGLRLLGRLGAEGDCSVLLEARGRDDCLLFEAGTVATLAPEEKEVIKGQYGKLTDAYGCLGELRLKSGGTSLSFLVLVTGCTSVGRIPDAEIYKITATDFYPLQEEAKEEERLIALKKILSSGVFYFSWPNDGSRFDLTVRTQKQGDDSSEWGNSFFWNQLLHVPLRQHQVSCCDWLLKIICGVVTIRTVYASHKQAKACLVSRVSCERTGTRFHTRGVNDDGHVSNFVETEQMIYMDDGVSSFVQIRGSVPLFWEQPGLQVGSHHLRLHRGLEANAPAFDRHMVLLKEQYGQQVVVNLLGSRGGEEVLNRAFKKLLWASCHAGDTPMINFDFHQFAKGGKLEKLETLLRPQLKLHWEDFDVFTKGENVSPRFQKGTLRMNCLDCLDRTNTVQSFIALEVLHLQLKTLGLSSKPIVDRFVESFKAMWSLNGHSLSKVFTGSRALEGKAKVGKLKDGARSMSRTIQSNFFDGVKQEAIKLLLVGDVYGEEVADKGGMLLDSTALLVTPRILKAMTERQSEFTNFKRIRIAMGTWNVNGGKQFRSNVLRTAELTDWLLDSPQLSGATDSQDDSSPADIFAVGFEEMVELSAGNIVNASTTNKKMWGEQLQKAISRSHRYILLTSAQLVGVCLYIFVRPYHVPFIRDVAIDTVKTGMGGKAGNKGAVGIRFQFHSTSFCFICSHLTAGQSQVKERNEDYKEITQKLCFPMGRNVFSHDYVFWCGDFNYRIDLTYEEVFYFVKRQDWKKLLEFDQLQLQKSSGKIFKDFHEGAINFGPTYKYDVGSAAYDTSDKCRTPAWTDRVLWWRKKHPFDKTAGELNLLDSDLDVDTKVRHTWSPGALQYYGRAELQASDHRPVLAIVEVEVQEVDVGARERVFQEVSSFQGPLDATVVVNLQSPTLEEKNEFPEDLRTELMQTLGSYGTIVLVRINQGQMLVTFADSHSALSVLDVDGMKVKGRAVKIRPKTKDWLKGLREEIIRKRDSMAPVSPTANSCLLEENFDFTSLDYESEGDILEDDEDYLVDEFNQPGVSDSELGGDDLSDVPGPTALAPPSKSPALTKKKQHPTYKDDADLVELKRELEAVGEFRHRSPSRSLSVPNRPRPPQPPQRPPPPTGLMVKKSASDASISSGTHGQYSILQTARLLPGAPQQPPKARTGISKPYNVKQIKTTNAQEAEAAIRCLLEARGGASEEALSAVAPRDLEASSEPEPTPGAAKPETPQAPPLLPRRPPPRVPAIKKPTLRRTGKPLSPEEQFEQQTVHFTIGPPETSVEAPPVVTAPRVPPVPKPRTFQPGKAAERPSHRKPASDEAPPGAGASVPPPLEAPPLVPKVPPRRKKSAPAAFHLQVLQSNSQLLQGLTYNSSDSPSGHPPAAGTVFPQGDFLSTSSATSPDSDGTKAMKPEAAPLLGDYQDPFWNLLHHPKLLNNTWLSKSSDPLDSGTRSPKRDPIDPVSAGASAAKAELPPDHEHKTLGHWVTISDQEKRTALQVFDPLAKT
UniProt O94864: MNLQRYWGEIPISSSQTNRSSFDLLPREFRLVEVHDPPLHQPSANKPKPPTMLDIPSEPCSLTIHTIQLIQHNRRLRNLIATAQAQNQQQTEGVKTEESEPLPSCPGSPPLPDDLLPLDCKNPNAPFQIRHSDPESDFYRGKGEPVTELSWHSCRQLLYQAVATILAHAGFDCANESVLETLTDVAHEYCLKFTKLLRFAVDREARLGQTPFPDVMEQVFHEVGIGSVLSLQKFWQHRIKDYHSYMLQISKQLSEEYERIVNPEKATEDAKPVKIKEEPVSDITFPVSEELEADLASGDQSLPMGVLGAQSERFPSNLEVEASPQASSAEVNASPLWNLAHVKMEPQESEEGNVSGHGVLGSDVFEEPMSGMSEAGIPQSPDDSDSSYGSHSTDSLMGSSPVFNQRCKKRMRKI
UniProt Q93045: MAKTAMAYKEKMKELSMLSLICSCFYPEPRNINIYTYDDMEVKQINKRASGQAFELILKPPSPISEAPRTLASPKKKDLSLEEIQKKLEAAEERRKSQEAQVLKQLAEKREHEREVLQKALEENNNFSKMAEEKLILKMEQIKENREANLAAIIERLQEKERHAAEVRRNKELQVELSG
UniProt O00268, whole entry, looked up: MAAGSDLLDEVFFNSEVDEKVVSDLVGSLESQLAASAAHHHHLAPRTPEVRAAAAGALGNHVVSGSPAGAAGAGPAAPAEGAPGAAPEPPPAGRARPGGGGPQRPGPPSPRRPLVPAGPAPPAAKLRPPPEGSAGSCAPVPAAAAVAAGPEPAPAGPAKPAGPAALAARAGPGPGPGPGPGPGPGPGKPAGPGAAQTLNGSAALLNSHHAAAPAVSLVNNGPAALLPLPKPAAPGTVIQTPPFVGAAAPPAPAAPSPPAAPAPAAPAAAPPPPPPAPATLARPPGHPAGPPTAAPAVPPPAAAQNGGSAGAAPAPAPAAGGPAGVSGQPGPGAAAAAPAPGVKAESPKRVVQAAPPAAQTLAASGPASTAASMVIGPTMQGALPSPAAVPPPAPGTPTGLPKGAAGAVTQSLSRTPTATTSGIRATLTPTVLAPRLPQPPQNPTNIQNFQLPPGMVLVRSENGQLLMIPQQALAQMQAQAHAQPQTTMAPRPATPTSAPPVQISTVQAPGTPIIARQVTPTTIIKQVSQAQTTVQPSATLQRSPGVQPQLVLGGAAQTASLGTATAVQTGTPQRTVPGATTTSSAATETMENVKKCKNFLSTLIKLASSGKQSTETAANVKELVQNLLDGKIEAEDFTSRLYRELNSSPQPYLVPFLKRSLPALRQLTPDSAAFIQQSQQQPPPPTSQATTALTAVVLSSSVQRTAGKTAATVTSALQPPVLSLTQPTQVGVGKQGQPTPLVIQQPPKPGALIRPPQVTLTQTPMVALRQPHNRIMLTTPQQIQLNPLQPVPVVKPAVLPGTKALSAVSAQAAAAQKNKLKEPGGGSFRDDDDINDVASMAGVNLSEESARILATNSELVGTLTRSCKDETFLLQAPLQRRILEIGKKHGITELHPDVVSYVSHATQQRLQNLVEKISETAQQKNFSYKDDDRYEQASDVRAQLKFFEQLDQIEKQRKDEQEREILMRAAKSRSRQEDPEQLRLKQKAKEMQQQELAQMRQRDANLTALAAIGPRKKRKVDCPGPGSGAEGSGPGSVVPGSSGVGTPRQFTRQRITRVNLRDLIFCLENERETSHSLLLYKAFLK
UniProt O60506: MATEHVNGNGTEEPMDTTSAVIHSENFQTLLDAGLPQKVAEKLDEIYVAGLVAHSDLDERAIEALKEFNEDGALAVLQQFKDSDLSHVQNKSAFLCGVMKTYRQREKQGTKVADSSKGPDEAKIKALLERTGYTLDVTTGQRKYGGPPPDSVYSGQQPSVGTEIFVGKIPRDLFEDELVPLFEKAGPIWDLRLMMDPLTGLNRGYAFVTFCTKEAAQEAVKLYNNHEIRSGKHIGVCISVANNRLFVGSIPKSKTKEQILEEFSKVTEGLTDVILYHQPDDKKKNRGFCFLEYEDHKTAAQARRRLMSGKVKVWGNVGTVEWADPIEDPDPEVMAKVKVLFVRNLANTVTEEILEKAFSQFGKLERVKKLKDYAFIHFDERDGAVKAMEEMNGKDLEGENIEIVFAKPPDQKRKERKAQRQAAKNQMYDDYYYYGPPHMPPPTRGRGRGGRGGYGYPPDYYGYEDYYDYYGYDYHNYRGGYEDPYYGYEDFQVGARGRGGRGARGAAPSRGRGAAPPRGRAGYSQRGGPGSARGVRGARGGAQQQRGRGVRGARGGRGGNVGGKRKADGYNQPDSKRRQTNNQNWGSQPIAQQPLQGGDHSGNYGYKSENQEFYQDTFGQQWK
UniProt O75716, whole entry, looked up: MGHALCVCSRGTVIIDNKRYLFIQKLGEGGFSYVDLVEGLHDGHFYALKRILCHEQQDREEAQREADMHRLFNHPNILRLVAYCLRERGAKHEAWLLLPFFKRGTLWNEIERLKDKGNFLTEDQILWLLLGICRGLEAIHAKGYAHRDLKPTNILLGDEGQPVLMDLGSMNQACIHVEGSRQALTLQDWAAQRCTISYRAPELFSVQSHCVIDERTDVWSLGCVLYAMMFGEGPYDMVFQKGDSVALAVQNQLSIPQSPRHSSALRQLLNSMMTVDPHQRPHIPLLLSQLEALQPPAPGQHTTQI
UniProt Q9UH65: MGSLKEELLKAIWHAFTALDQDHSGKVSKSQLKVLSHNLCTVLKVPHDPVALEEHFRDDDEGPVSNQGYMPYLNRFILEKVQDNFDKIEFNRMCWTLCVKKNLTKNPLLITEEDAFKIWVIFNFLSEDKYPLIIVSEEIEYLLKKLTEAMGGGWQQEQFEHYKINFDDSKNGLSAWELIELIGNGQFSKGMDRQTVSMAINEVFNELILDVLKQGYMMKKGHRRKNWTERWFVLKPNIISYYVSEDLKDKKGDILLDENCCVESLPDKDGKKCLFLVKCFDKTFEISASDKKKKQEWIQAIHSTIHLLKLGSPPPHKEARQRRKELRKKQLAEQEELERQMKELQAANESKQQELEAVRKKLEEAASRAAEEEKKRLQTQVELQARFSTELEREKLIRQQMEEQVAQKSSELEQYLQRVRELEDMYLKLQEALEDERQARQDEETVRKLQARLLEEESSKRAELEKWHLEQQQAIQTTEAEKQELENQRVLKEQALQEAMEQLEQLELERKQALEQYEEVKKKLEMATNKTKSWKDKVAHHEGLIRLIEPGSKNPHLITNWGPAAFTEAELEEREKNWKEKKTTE
UniProt O43752: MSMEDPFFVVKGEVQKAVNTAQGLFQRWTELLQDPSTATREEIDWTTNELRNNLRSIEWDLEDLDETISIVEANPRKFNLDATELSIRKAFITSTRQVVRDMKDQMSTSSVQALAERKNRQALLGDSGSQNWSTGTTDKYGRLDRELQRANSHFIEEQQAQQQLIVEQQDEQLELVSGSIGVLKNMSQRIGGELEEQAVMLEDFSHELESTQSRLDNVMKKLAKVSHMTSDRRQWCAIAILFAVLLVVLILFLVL
UniProt O75528: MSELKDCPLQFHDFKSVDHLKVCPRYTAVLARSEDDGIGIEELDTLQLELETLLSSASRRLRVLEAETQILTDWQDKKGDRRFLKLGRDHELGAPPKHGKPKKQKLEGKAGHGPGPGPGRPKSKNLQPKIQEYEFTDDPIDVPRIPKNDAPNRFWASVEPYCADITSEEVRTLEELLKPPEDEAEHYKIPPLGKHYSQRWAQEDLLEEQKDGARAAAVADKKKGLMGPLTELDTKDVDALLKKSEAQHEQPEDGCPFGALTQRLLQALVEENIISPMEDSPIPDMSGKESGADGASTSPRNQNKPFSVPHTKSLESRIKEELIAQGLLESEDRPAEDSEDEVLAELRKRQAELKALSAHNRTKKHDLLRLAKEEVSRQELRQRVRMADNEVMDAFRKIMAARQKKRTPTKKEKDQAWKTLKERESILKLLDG
UniProt P08247, whole entry, looked up: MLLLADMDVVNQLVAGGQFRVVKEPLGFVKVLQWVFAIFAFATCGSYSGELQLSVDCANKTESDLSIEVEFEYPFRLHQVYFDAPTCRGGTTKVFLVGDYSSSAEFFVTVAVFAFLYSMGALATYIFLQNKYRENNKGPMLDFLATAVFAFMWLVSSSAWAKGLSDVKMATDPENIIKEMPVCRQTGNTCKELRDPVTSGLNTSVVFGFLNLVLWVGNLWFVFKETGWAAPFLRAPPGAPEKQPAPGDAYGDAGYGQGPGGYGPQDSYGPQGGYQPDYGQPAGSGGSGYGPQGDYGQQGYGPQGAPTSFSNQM
UniProt Q96I99: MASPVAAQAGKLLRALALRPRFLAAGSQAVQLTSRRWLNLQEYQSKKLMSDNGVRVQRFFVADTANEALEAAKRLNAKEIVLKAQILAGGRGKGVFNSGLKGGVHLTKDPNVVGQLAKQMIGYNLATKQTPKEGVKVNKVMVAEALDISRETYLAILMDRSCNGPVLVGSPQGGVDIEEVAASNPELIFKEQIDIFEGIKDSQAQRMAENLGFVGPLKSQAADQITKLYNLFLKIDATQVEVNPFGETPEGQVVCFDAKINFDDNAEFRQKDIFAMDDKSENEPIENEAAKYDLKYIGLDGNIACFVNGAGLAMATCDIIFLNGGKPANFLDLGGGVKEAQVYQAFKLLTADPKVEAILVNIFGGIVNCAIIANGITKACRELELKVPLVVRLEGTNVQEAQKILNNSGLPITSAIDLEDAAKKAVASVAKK

[1] = compound: C/C(=N\NC(=O)C1=CC(=CC=C1)S(=O)(=O)N2CCOCC2)/C3=C(C=CC(=C3)Cl)O
How it was run: as §1

[2] = compound: C1=CC(=CC=C1C2=NC3=C(N2)C=C(C=C3)C(=O)N)OC4=CC=C(C=C4)Cl
How it was run: as §1

[3] = compound: C1=CC2=C(C=CC(=C2)/C=C\3/C(=O)NC(=NCC4=CC=CS4)S3)N=C1
How it was run: as §1

[4] = compound: C1=CC2=NC=CN=C2C=C1/C=C/3\C(=O)NC(=O)S3
How it was run: as §1

[5] = compound: C1=CC=C(C=C1)C2=NC(=C(N2)C3=CC=NC=C3)C4=CC(=C(C=C4)Cl)O
How it was run: as §1

[6] = compound: C1=CC=C2C(=C1)C3=NNC4=CC=CC(=C43)C2=O
How it was run: as §1

[7] = compound: C1CCN(C1)C(=O)NC2=CC=CC(=C2)NC3=NC=C(C(=N3)NCCC4=CN=CN4)Br
How it was run: as §1

[8] = compound: C1CN(CCC1(CC2=CC=C(C=C2)Cl)N)C3=NC=NC4=C3C=CN4
How it was run: as §1

IRAK-1-4 Inhibitor I = compound: C1COCCN1CCN2C3=CC=CC=C3N=C2NC(=O)C4=CC(=CC=C4)[N+](=O)[O-] [IRAK-1-4 Inhibitor I]
How it was run: as §1

ibrutinib = compound: C=CC(=O)N1CCC[C@@H](n2nc(-c3ccc(Oc4ccccc4)cc3)c3c(N)ncnc32)C1 [ibrutinib]
How it was run: as §1

[9] = compound: CC(=O)c1cnc2ccc(-c3cc(Cl)c(O)c(Cl)c3)nc2c1N[C@H]1CC[C@H](CN(C)C)CC1
How it was run: as §1

ralimetinib = compound: CC(C)(C)Cn1c(N)nc2ccc(-c3[nH]c(C(C)(C)C)nc3-c3ccc(F)cc3)nc21 [ralimetinib]
How it was run: as §1

[10] = compound: CC(C)(O)CC(=O)NCCn1ccc2ncnc(Nc3ccc(Oc4cccc(C(F)(F)F)c4)c(Cl)c3)c21
How it was run: as §1

[11] = compound: CC(C)C1=C2N=C(C=C(N2N=C1)NCC3=CC=CC=C3)NCCCCCCN
How it was run: as §1

[12] = compound: CC1=C(C(CC(=O)N1)C2=CC=C(C=C2)C(F)(F)F)C(=O)NC3=C(C=C4C(=C3)C=NN4)F
How it was run: as §1

[13] = compound: CC1=C(C2=C(C=C1)C(=O)C3=CC=CC=C3N2CCCN)C
How it was run: as §1

[14] = compound: CC1=C(C=C(C=C1)NC(=O)C2=CC(=CC=C2)C(C)(C)C#N)NC3=CC4=C(C=C3)N=CN(C4=O)C
How it was run: as §1

[15] = compound: CC1=C(C=C(C=C1)NC(=O)C2=CC(=CC=C2)N(C)C)NC(=O)C3=CC=C(C=C3)O
How it was run: as §1

[16] = compound: CC1=CC=C(C=C1)SC2=C3C=C(SC3=CN=C2)C(=O)N
How it was run: as §1

Measured: log2 fold change

SYNJ2 (UniProt O15056)
inactive: erlotinib 0.001 | [1] -0.014 | [2] -0.012 | [3] -0.059 | [4] -0.043 | [5] -0.019 | [6] 0.014 | [7] -0.097 | [8] 0.039 | IRAK-1-4 Inhibitor I 0.032 | ibrutinib -0.01 | [9] 0.008 | ralimetinib 0.025 | [10] -0.026 | [11] -0.022 | [12] -0.053 | [13] 0.03 | [14] -0.001 | [15] 0.017 | [16] -0.023

SUPT7L (UniProt O94864)
inactive: erlotinib -0.087 | [1] -0.003 | [2] -0.024 | [3] -0.037 | [4] -0.057 | [5] 0.113 | [6] -0.041 | [7] -0.086 | [8] -0.005 | IRAK-1-4 Inhibitor I 0.025 | ibrutinib -0.016 | [9] 0.045 | ralimetinib 0.01 | [10] -0.113 | [11] -0.117 | [12] -0.105 | [13] -0.035 | [14] 0.032 | [15] -0.07 | [16] -0.097

STMN2 isoform 2 (UniProt Q93045)
inactive: erlotinib -0.038 | [1] 0.041 | [2] -0.038 | [3] -0.047 | [4] -0.006 | [5] 0.023 | [6] 0.015 | [7] 0.059 | [8] 0.009 | IRAK-1-4 Inhibitor I -0.009 | ibrutinib -0.055 | [9] 0.024 | ralimetinib -0.043 | [10] 0.029 | [11] 0.058 | [12] 0.009 | [13] 0.039 | [14] 0 | [15] -0.01 | [16] -0.027

TACC3 (UniProt Q9Y6A5)
inactive: erlotinib -0.015 | [1] 0.022 | [2] 0.033 | [3] 0.027 | [4] -0.025 | [5] 0.01 | [6] 0.03 | [7] 0.011 | [8] -0.022 | IRAK-1-4 Inhibitor I 0.01 | ibrutinib -0.001 | [9] 0 | ralimetinib 0.006 | [10] 0.014 | [11] -0.004 | [12] -0.005 | [13] 0.011 | [14] -0.031 | [15] -0.004 | [16] -0.016

SZT2 (UniProt Q5T011)
inactive: erlotinib 0.043 | [2] -0.089 | [4] 0.134 | [5] -0.013 | [7] -0.004 | [8] 0.016 | IRAK-1-4 Inhibitor I 0.014 | ibrutinib -0.225 | [9] -0.102 | ralimetinib 0.14 | [10] -0.07 | [11] -0.135 | [12] 0.076 | [13] 0.126 | [15] -0.134 | [16] 0.105

TAF4 (UniProt O00268)
inactive: erlotinib -0.004 | [1] 0.007 | [2] -0.04 | [3] 0.045 | [4] -0.041 | [5] 0.038 | [6] -0.024 | [7] -0.08 | [8] 0.024 | IRAK-1-4 Inhibitor I 0.013 | ibrutinib -0.178 | [9] -0.047 | ralimetinib -0.001 | [10] -0.053 | [11] 0.057 | [12] 0.007 | [13] -0.019 | [14] -0.021 | [15] 0.003 | [16] 0.026

Looked up one by one from the entries so far (two):
SZT2 (UniProt Q5T011)
inactive: erlotinib 0.043 | [2] -0.089 | [4] 0.134 | [5] -0.013 | [7] -0.004 | [8] 0.016 | IRAK-1-4 Inhibitor I 0.014 | ibrutinib -0.225 | [9] -0.102 | ralimetinib 0.14 | [10] -0.07 | [11] -0.135 | [12] 0.076 | [13] 0.126 | [15] -0.134 | [16] 0.105

TAF4 (UniProt O00268)
inactive: erlotinib -0.004 | [1] 0.007 | [2] -0.04 | [3] 0.045 | [4] -0.041 | [5] 0.038 | [6] -0.024 | [7] -0.08 | [8] 0.024 | IRAK-1-4 Inhibitor I 0.013 | ibrutinib -0.178 | [9] -0.047 | ralimetinib -0.001 | [10] -0.053 | [11] 0.057 | [12] 0.007 | [13] -0.019 | [14] -0.021 | [15] 0.003 | [16] 0.026

Later entries.

SYNJ2BP-COX16, A0A087WYV9
inactive: erlotinib -0.023 | [1] 0.093 | [2] 0.121 | [3] -0.037 | [4] 0.01 | [5] 0.001 | [6] -0.061 | [7] 0.029 | [8] 0.009 | IRAK-1-4 Inhibitor I -0.009 | ibrutinib 0.002 | [9] 0.432 | ralimetinib -0.018 | [10] 0.075 | [11] -0.036 | [12] -0.106 | [13] -0.088 | [14] -0.05 | [15] -0.019 | [16] -0.046

SYNCRIP (UniProt O60506)
inactive: erlotinib -0.018 | [1] -0.004 | [2] -0.019 | [3] 0.002 | [4] -0.018 | [5] 0.013 | [6] 0.02 | [7] 0.013 | [8] 0.005 | IRAK-1-4 Inhibitor I -0.008 | ibrutinib -0.004 | [9] -0.2 | ralimetinib -0.009 | [10] -0.004 | [11] -0.002 | [12] -0.015 | [13] -0.012 | [14] -0.036 | [15] 0.018 | [16] 0.018

STK16 (UniProt O75716)
inactive: erlotinib -0.023 | [1] -0.108 | [2] 0.035 | [3] -0.3 | [5] -0.005 | [6] 0.351 | [7] 0.207 | [8] 0.01 | IRAK-1-4 Inhibitor I -0.036 | [9] 0.567 | ralimetinib 0.091 | [10] 0.089 | [11] -0.053 | [13] -0.004 | [14] -0.146 | [15] 0.065 | [16] -0.026

SWAP70 (UniProt Q9UH65)
inactive: erlotinib -0.039 | [1] 0.005 | [2] 0.011 | [3] 0.109 | [4] 0.005 | [5] 0.015 | [6] -0.015 | [7] 0.007 | [8] -0.035 | IRAK-1-4 Inhibitor I 0.017 | ibrutinib 0.008 | [9] -0.013 | ralimetinib 0.003 | [10] -0.021 | [11] -0.013 | [12] -0.041 | [13] 0.011 | [14] -0.014 | [15] -0.006 | [16] -0.009

STX6 (UniProt O43752)
inactive: erlotinib 0.043 | [1] -0.054 | [2] 0.005 | [3] -0.032 | [4] 0.005 | [5] -0.017 | [6] -0.011 | [7] 0.028 | [8] 0.027 | IRAK-1-4 Inhibitor I 0.019 | ibrutinib 0.015 | [9] -0.031 | ralimetinib -0.01 | [10] -0.049 | [11] -0.038 | [12] -0.04 | [13] 0.011 | [14] 0.03 | [15] -0.012 | [16] 0.017

STK11IP (UniProt Q8N1F8)
inactive: erlotinib 0.015 | [1] 0.008 | [2] -0.002 | [3] -0.071 | [4] 0.007 | [5] -0.007 | [6] 0.025 | [7] -0.029 | [8] 0.033 | IRAK-1-4 Inhibitor I 0.053 | ibrutinib -0.016 | [9] -0.024 | ralimetinib 0.044 | [10] -0.055 | [11] 0 | [12] 0.046 | [13] 0.024 | [14] -0.009 | [15] 0 | [16] 0.015

TADA3 (UniProt O75528)
inactive: erlotinib 0.02 | [1] -0.046 | [2] 0.032 | [3] -0.073 | [4] -0.04 | [5] 0.048 | [6] 0.009 | [7] -0.058 | [8] 0.053 | IRAK-1-4 Inhibitor I 0.018 | ibrutinib 0.032 | [9] 0 | ralimetinib -0.013 | [10] -0.022 | [11] 0.018 | [12] -0.003 | [13] -0.005 | [14] 0.054 | [15] 0.024 | [16] -0.011

SYP (UniProt P08247)
inactive: erlotinib -0.002 | [1] 0.044 | [2] 0.076 | [3] 0.051 | [4] 0.025 | [5] 0.004 | [6] 0.055 | [7] 0.105 | [8] 0.064 | IRAK-1-4 Inhibitor I 0.071 | ibrutinib -0.119 | [9] 0.067 | ralimetinib 0.075 | [10] -0.041 | [11] 0.144 | [12] 0.079 | [13] -0.011 | [14] 0.037 | [15] -0.018 | [16] -0.02

SUCLG2 (UniProt Q96I99)
inactive: erlotinib 0.005 | [1] -0.011 | [2] 0.001 | [3] -0.016 | [4] 0.015 | [5] -0.002 | [6] -0.021 | [7] 0 | [8] 0.018 | IRAK-1-4 Inhibitor I 0.014 | ibrutinib 0.018 | [9] 0.006 | ralimetinib 0.014 | [10] -0.013 | [11] 0.016 | [12] 0 | [13] 0.013 | [14] -0.005 | [15] 0.012 | [16] -0.014

Reference: the supplement of paper PMC10849652
